# Values from PubChem BioAssay AID1259305 (Sanger Institute, 2017).
# Test: 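Kinase genes whose silencing acts in synergy with trametinib, BYL719 or cetuximab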 (follow-up of hits)
# Cells: human DIFI colorectal cancer cells
# Knock-down reagent: single siRNA against human genes
# Challenge: BYL719 1 µM, cetuximab 5 µg/ml or trametinib 10 nM, or DMSO vehicle, added one day after transfection; exposure time not given
# Measurement: 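Cell survival as a ratio to a non-targeting siRNA control pool, mean of replicates; per-drug synergy scores set knock-down plus drug against each alone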
# Reading the numbers: synergy score with BYL719 and synergy score with Cetuximab and synergy score with Trametinib: higher = stronger combined killing than expected; viability, knock-down alone: higher = more cells surviving knock-down; viability with Cetuximab: higher = more cells surviving knock-down plus drug
# Active means: 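Synergy score over 0.10 with any single drug gives a synergistic, that is synthetic lethal, call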
# Here is an unselected part of 160 deposited reagents. Over the whole deposit, 96 (60%) were called active. 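Each call covers one siRNA sequence in one cell line only; gene-level confirmation needs agreement across siRNAs and lines.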 The numbers tell different reagents against one gene apart. No viability above 1 is reported: the scale is capped. The record does not give: the amount of reagent, the time to read-out.
The first 2 records, ahead of the listing:
target gene,siRNA no.,synergy score with BYL719,synergy score with Cetuximab,synergy score with Trametinib,"viability, knock-down alone",viability with Cetuximab,call
COASY,1,0.00555,-0.0365,0.0594,0.742,0.33,inactive
COASY,2,0.102,-0.0289,-0.0173,0.862,0.37,active

The list itself, from the start:
target gene,siRNA no.,synergy score with BYL719,synergy score with Cetuximab,synergy score with Trametinib,"viability, knock-down alone",viability with Cetuximab,call
COASY,1,0.00555,-0.0365,0.0594,0.742,0.33,inactive
COASY,2,0.102,-0.0289,-0.0173,0.862,0.37,active
COASY,3,0.0751,0.09,0.126,0.401,0.069,active
COASY,4,0.128,0.11,0.153,0.463,0.0733,active
SYNCRIP,1,0.149,0.0296,0.142,0.658,0.231,active
SYNCRIP,2,-0.0209,0.00468,0.0417,1,0.391,inactive
SYNCRIP,3,0.143,0.11,0.224,0.673,0.156,active
SYNCRIP,4,0.031,0.0744,0.0387,0.961,0.306,inactive
HUNK,1,0.163,0.133,0.0286,0.69,0.14,active
HUNK,2,0.0223,0.0224,0.0829,0.339,0.112,inactive
HUNK,3,0.0467,0.00319,0.159,0.895,0.351,active
HUNK,4,0.114,0.0912,0.313,0.852,0.246,active
PRAG1,1,0.0396,0.0133,0.188,0.471,0.173,active
PRAG1,2,0.238,0.0141,0.158,0.794,0.3,active
PRAG1,3,-0.00192,0.00962,-0.136,1,0.386,inactive
PRAG1,4,0.0197,0.0471,0.0264,0.951,0.33,inactive
IRAK3,1,-0.0154,0.00089,0.0398,0.391,0.154,inactive
IRAK3,2,0.205,0.143,0.264,0.974,0.243,active
IRAK3,3,0.0389,0.134,-0.00552,1,0.262,active
IRAK3,4,-0.0923,-0.0553,0.0165,1,0.451,inactive
